PubChem BioAssay AID1259308 – NCATS | 2017
In all, the deposit lists about 59,000 reagents; shown is an unselected part. In the full data, about 1,510 (2.6%) are marked active. 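Calls use total luciferase alone and ignore viability, so some active siRNAs may act by altering cell number.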 Entries without a mark were called inactive. The numbers tell different reagents against one gene apart. Further read-outs or replicates are left out here. Reagent sequences are not shown.

- Purpose: 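Candidate targets for better recombinant protein yield in mammalian cells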 (primary screen)
- Cells: human HEK293 embryonic kidney cells stably expressing firefly luciferase (HEK-CMV-Luc2-Hygro)
- Knock-down reagent: single siRNA against human genes, 0.8 pmol siRNA per well
- Duration: 72 h
- Measurement: 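Luciferase light (ONE-Glo) measured on one replicate plate set and viability (CellTiter-Glo) on the other, scaled to a negative control siRNA, with robust z-scores and luciferase per cell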
- Scale: total luciferase, z-score and total luciferase, % of control: higher = more reporter protein produced
- Rule for the call: 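Active when the median/MAD z-score for overall luciferase is greater than 3; a gene was taken forward for validation with new siRNAs if at least two of its three siRNAs passed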
- Calls: active = raised luciferase; inactive = no rise

| gene knocked down | reagent no. | total luciferase, z-score | total luciferase, % of control |
| --- | --- | --- | --- |
| TMPRSS7 | 1 | -0.0236 | 81.4 |
| TMPRSS7 | 2 | -0.137 | 79.2 |
| TMPRSS7 | 3 | -0.592 | 70.1 |
| CTSK | 1 | -0.48 | 72.3 |
| CTSK | 2 | 0.735 | 96.5 |
| CTSK | 3 | 1.29 | 107 |
| DMXL1 | 1 | 1.16 | 105 |
| DMXL1 | 2 | 1.61 | 114 |
| DMXL1 | 3 | 0.683 | 95.5 |
| ADAM9 | 1 | 2.14 | 124 |
| ADAM9 | 2 | -0.77 | 66.6 |
| ADAM9 | 3 | -1.12 | 59.7 |
| OR4D5 | 1 | -0.195 | 78 |
| OR4D5 | 2 | -0.559 | 70.8 |
| OR4D5 | 3 | 0.298 | 87.8 |
| DDX53 | 1 | -0.499 | 72 |
| DDX53 | 2 | 0.591 | 93.6 |
| DDX53 | 3 | -0.851 | 65 |
| MOB3B | 1 | -0.157 | 78.8 |
| MOB3B | 2 | 1.15 | 105 |
| MOB3B | 3 | -2.83 | 25.6 |
| NTPCR | 1 | -0.822 | 65.5 |
| NTPCR | 2 | 0.679 | 95.4 |
| NTPCR | 3 | -0.634 | 69.3 |
| DPP10 | 1 | -0.84 | 65.2 |
| DPP10 | 2 | 0.59 | 93.6 |
| DPP10 | 3 | 0.307 | 88 |
| HERC4 | 1 | 0.543 | 92.7 |
| HERC4 | 2 | 0.164 | 85.1 |
| HERC4 | 3 | -0.786 | 66.3 |
| LONP1 | 1 | -0.179 | 78.3 |
| LONP1 | 2 | -1.37 | 54.5 |
| LONP1 | 3 | 1.8 | 118 |
| MBNL1-AS1 | 1 | -1.14 | 59.1 |
| MBNL1-AS1 | 2 | -2.01 | 41.9 |
| MBNL1-AS1 | 3 | 0.523 | 92.3 |
| C2orf92 | 1 | 0.284 | 87.5 |
| C2orf92 | 2 | -0.909 | 63.8 |
| C2orf92 | 3 | -1.17 | 58.6 |
| RPS25P4 | 1 | -1.01 | 61.7 |
| RPS25P4 | 2 | -0.131 | 79.3 |
| RPS25P4 | 3 | -0.401 | 73.9 |
| DCTD | 1 | 0.657 | 95 |
| DCTD | 2 | 0.896 | 99.7 |
| DCTD | 3 | 0.816 | 98.1 |
| EGFL7 | 1 | 0.124 | 84.4 |
| EGFL7 | 2 | -0.128 | 79.3 |
| EGFL7 | 3 | 3.21 (active) | 146 |
| SCAPER | 1 | -0.436 | 73.2 |
| SCAPER | 2 | 1.27 | 107 |
| SCAPER | 3 | 0.286 | 87.6 |
| ABCA9 | 1 | 0.493 | 91.7 |
| ABCA9 | 2 | 0.234 | 86.5 |
| ABCA9 | 3 | 1.55 | 113 |
| SNRNP200 | 1 | 2.49 | 131 |
| SNRNP200 | 2 | 8.01 (active) | 241 |
| SNRNP200 | 3 | 2.38 | 129 |
